# From doi:10.1101/2022.10.12.511839 (bioRxiv, 2022)
# Chains of the proteins cited; added tags and fusions are not shown. Residues count along the entry.
# UniProt Q14160, residues 833-965: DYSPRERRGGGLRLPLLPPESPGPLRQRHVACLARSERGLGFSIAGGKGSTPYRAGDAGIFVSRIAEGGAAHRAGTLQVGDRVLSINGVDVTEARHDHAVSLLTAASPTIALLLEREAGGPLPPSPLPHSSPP
# Results are given in words; binding and its absence hold for the method and conditions named. Some results given as binding are weak or reduced against the parent protein; the word gives no strength.
# Molecular target: human Scribble PDZ2 domain (833-965) (human) (UniProt Q14160)
# Assay: ITC
binder,measurement,value
RTRQRNETQV [HPV51 E6 C-terminal PBM 10-mer peptide (RTRQRNETQV)],binding,binds weakly
